Source: article PMC8903684
These are yes or no findings as the source states them, for the method shown. Binding seen in cells or lysates may run through a third protein. Some results given as binding are weak or reduced against the parent protein; the word gives no strength.

T1: Transmembrane protein 43 (TMEM43), endogenous (human (endogenous in MIAPaCa-2 and SW1990)) (UniProt Q9BTV4)
T1 sequence: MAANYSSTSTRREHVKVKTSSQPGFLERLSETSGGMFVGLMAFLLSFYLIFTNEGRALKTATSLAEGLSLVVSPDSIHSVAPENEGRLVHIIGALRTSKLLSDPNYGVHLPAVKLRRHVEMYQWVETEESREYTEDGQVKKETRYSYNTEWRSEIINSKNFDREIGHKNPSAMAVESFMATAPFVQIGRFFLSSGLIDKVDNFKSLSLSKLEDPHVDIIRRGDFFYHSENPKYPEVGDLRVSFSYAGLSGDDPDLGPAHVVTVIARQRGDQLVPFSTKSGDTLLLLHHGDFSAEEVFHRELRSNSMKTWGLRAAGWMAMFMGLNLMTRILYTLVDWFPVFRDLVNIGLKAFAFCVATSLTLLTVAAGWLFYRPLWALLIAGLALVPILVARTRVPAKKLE

T2: Exogenous TMEM43 expressed in HEK293 cells (UniProt Q9BTV4)
T2 sequence: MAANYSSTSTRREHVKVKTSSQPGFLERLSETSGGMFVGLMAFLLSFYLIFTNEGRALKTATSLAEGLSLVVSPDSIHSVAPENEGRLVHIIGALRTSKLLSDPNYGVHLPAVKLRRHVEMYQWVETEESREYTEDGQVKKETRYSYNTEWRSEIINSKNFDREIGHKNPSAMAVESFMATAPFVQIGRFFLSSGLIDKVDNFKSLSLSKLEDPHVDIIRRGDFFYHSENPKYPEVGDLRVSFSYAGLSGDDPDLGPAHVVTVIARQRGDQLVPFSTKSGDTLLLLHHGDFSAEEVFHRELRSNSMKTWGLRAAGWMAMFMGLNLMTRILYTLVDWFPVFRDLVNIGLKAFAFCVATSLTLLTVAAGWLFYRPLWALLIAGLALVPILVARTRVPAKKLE


How the values were obtained:
[1] = biological target: T1, Transmembrane protein 43 (TMEM43), endogenous (human (endogenous in MIAPaCa-2 and SW1990)); assay: co-IP; endogenous proteins in SW1990 and MIAPaCa-2 lysates (RIPA lysis buffer); immunoprecipitated with anti-TMEM43 or anti-PRPF3 antibodies or IgG, 3 h at 4 °C, protein A/G magnetic beads overnight; western blot
[2] = biological target: T2, Exogenous TMEM43 expressed in HEK293 cells; assay: co-IP; exogenous TMEM43 and PRPF3 in HEK293 cells; IP/western blotting; anti-flag/HA magnetic beads

binding [1]	binding [2]	Binder
binds	–	Pre-mRNA processing factor 3 (PRPF3), endogenous (protein, UniProt O43395 1-683) MALSKRELDELKPWIEKTVKRVLGFSEPTVVTAALNCVGKGMDKKKAADHLKPFLDDSTLRFVDKLFEAVEEGRSSRHSKSSSDRSRKRELKEVFGDDSEISKESSGVKKRRIPRFEEVEEEPEVIPGPPSESPGMLTKLQIKQMMEAATRQIEERKKQLSFISPPTPQPKTPSSSQPERLPIGNTIQPSQAATFMNDAIEKARKAAELQARIQAQLALKPGLIGNANMVGLANLHAMGIAPPKVELKDQTKPTPLILDEQGRTVDATGKEIELTHRMPTLKANIRAVKREQFKQQLKEKPSEDMESNTFFDPRVSIAPSQRQRRTFKFHDKGKFEKIAQRLRTKAQLEKLQAEISQAARKTGIHTSTRLALIAPKKELKEGDIPEIEWWDSYIIPNGFDLTEENPKREDYFGITNLVEHPAQLNPPVDNDTPVTLGVYLTKKEQKKLRRQTRREAQKELQEKVRLGLMPPPEPKVRISNLMRVLGTEAVQDPTKVEAHVRAQMAKRQKAHEEANAARKLTAEQRKVKKIKKLKEDISQGVHISVYRVRNLSNPAKKFKIEANAGQLYLTGVVVLHKDVNVVVVEGGPKAQKKFKRLMLHRIKWDEQTSNTKGDDDEESDEEAVKKTNKCVLVWEGTAKDRSFGEMKFKQCPTENMAREHFKKHGAEHYWDLALSESVLESTD
–	binds	Exogenous PRPF3 expressed in HEK293 cells (protein, UniProt O43395 1-683) MALSKRELDELKPWIEKTVKRVLGFSEPTVVTAALNCVGKGMDKKKAADHLKPFLDDSTLRFVDKLFEAVEEGRSSRHSKSSSDRSRKRELKEVFGDDSEISKESSGVKKRRIPRFEEVEEEPEVIPGPPSESPGMLTKLQIKQMMEAATRQIEERKKQLSFISPPTPQPKTPSSSQPERLPIGNTIQPSQAATFMNDAIEKARKAAELQARIQAQLALKPGLIGNANMVGLANLHAMGIAPPKVELKDQTKPTPLILDEQGRTVDATGKEIELTHRMPTLKANIRAVKREQFKQQLKEKPSEDMESNTFFDPRVSIAPSQRQRRTFKFHDKGKFEKIAQRLRTKAQLEKLQAEISQAARKTGIHTSTRLALIAPKKELKEGDIPEIEWWDSYIIPNGFDLTEENPKREDYFGITNLVEHPAQLNPPVDNDTPVTLGVYLTKKEQKKLRRQTRREAQKELQEKVRLGLMPPPEPKVRISNLMRVLGTEAVQDPTKVEAHVRAQMAKRQKAHEEANAARKLTAEQRKVKKIKKLKEDISQGVHISVYRVRNLSNPAKKFKIEANAGQLYLTGVVVLHKDVNVVVVEGGPKAQKKFKRLMLHRIKWDEQTSNTKGDDDEESDEEAVKKTNKCVLVWEGTAKDRSFGEMKFKQCPTENMAREHFKKHGAEHYWDLALSESVLESTD
